No constants are given. Whether binding was seen depends on the method and setting. For some of these results: In cells and extracts the contact can be indirect. Some entries that bind do so weakly or less than the wild type. For some of these results: Sequences can lack the tags named with a protein.
What was measured:
[1] = biological target: MBD domain of MBD3 (residues 1–72), tag-free (human) (UniProt O95983); experiment: SEC; purified MBDDE or MBD alone on Superdex 75 10/300 GL against protein standards; both purified
[2] = biological target: FLAG-tagged MBD3, full-length (human) (UniProt O95983); experiment: co-IP; FLAG-MBD3 or truncation mutants expressed in 293F cells, 48 h; lysate (0.3% NP-40, Benzonase) on anti-FLAG M2 affinity gel overnight at 4°C, FLAG peptide elution; blot with anti-ADAR1
[3] = biological target: MBD domain of MBD3 (residues 1–72), tag-free (human) (UniProt O95983); experiment: SEC; Zα (400 μM) and MBDDE (100 μM), or Zα and MBD under the same conditions, 4:1 molar ratio; 20 mM Tris-HCl pH 7.5, 50 mM NaCl, 1 mM TCEP; Superdex 75 10/300 GL; fractions on SDS-PAGE; both purified

Chains of the proteins cited; added tags and fusions are not shown. Lines headed by an entry give the natural chain unless they say otherwise; changes in a name come on top. A line that says so, or that is headed by a name, gives the form on record, which may keep a tag or linker. Residues count along the entry.
UniProt O95983: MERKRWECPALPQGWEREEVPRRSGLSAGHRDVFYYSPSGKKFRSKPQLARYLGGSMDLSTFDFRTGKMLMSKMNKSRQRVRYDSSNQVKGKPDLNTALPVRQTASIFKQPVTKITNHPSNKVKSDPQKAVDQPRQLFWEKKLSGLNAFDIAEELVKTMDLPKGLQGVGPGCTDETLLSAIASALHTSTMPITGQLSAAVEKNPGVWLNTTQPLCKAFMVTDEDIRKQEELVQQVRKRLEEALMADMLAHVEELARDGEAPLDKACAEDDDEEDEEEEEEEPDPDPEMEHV
MBD domain of MBD3 (residues 1–72), tag-free: residues 1-72 of O95983

Q: “MBD domain of MBD3 (residues 1–72), tag-free (from UniProt O95983-1 1-72) (domain or fragment)” was tested. Which binding [1] did it give?
A: Its binding is “no binding”.

B1: endogenous ADAR1 (adenosine deaminase acting on RNA), isoform not named in the results (protein, UniProt P55265 1-1226)
chain: MNPRQGYSLSGYYTHPFQGYEHRQLRYQQPGPGSSPSSFLLKQIEFLKGQLPEAPVIGKQTPSLPPSLPGLRPRFPVLLASSTRGRQVDIRGVPRGVHLRSQGLQRGFQHPSPRGRSLPQRGVDCLSSHFQELSIYQDQEQRILKFLEELGEGKATTAHDLSGKLGTPKKEINRVLYSLAKKGKLQKEAGTPPLWKIAVSTQAWNQHSGVVRPDGHSQGAPNSDPSLEPEDRNSTSVSEDLLEPFIAVSAQAWNQHSGVVRPDSHSQGSPNSDPGLEPEDSNSTSALEDPLEFLDMAEIKEKICDYLFNVSDSSALNLAKNIGLTKARDINAVLIDMERQGDVYRQGTTPPIWHLTDKKRERMQIKRNTNSVPETAPAAIPETKRNAEFLTCNIPTSNASNNMVTTEKVENGQEPVIKLENRQEARPEPARLKPPVHYNGPSKAGYVDFENGQWATDDIPDDLNSIRAAPGEFRAIMEMPSFYSHGLPRCSPYKKLTECQLKNPISGLLEYAQFASQTCEFNMIEQSGPPHEPRFKFQVVINGREFPPAEAGSKKVAKQDAAMKAMTILLEEAKAKDSGKSEESSHYSTEKESEKTAESQTPTPSATSFFSGKSPVTTLLECMHKLGNSCEFRLLSKEGPAHEPKFQYCVAVGAQTFPSVSAPSKKVAKQMAAEEAMKALHGEATNSMASDNQPEGMISESLDNLESMMPNKVRKIGELVRYLNTNPVGGLLEYARSHGFAAEFKLVDQSGPPHEPKFVYQAKVGGRWFPAVCAHSKKQGKQEAADAALRVLIGENEKAERMGFTEVTPVTGASLRRTMLLLSRSPEAQPKTLPLTGSTFHDQIAMLSHRCFNTLTNSFQPSLLGRKILAAIIMKKDSEDMGVVVSLGTGNRCVKGDSLSLKGETVNDCHAEIISRRGFIRFLYSELMKYNSQTAKDSIFEPAKGGEKLQIKKTVSFHLYISTAPCGDGALFDKSCSDRAMESTESRHYPVFENPKQGKLRTKVENGEGTIPVESSDIVPTWDGIRLGERLRTMSCSDKILRWNVLGLQGALLTHFLQPIYLKSVTLGYLFSQGHLTRAICCRVTRDGSAFEDGLRHPFIVNHPKVGRVSIYDSKRQSGKTKETSVNWCLADGYDLEILDGTRGTVDGPRNELSRVSKKNIFLLFKKLCSFRYRRDLLRLSYGEAKKAARDYETAKNYFKKGLKDMGYGNWISKPQEEKNFYLCPV
Q: Which binding [2] does the source give for B1 here?
A: Its binding is “binds”.

B2: ADAR1-p110 (protein, UniProt P55265-5 1-931)
chain: MAEIKEKICDYLFNVSDSSALNLAKNIGLTKARDINAVLIDMERQGDVYRQGTTPPIWHLTDKKRERMQIKRNTNSVPETAPAAIPETKRNAEFLTCNIPTSNASNNMVTTEKVENGQEPVIKLENRQEARPEPARLKPPVHYNGPSKAGYVDFENGQWATDDIPDDLNSIRAAPGEFRAIMEMPSFYSHGLPRCSPYKKLTECQLKNPISGLLEYAQFASQTCEFNMIEQSGPPHEPRFKFQVVINGREFPPAEAGSKKVAKQDAAMKAMTILLEEAKAKDSGKSEESSHYSTEKESEKTAESQTPTPSATSFFSGKSPVTTLLECMHKLGNSCEFRLLSKEGPAHEPKFQYCVAVGAQTFPSVSAPSKKVAKQMAAEEAMKALHGEATNSMASDNQPEGMISESLDNLESMMPNKVRKIGELVRYLNTNPVGGLLEYARSHGFAAEFKLVDQSGPPHEPKFVYQAKVGGRWFPAVCAHSKKQGKQEAADAALRVLIGENEKAERMGFTEVTPVTGASLRRTMLLLSRSPEAQPKTLPLTGSTFHDQIAMLSHRCFNTLTNSFQPSLLGRKILAAIIMKKDSEDMGVVVSLGTGNRCVKGDSLSLKGETVNDCHAEIISRRGFIRFLYSELMKYNSQTAKDSIFEPAKGGEKLQIKKTVSFHLYISTAPCGDGALFDKSCSDRAMESTESRHYPVFENPKQGKLRTKVENGEGTIPVESSDIVPTWDGIRLGERLRTMSCSDKILRWNVLGLQGALLTHFLQPIYLKSVTLGYLFSQGHLTRAICCRVTRDGSAFEDGLRHPFIVNHPKVGRVSIYDSKRQSGKTKETSVNWCLADGYDLEILDGTRGTVDGPRNELSRVSKKNIFLLFKKLCSFRYRRDLLRLSYGEAKKAARDYETAKNYFKKGLKDMGYGNWISKPQEEKNFYLCPV
Q: Which binding [2] does the source give for B2 here?
A: Its binding is “binds”.

B3: Zα, tag-free (Z-DNA binding domain of human ADAR1, residues 133-209) (domain or fragment, UniProt P55265 133-209)
chain: LSIYQDQEQRILKFLEELGEGKATTAHDLSGKLGTPKKEINRVLYSLAKKGKLQKEAGTPPLWKIAVSTQAWNQHSG
Q: With B3 as the molecule, how does the binding [3] read?
A: The binding was “no binding (tested: Zα and MBD at a 4:1 molar ratio)”.

Source: article PMC6294567, “The C-terminal D/E-rich domain of MBD3 is a putative Z-DNA mimic that competes for Zα DNA-binding activity” (Nucleic Acids Research, 2018)
